The values that follow come from the supplement of paper PMC10849652.

Chains of the proteins cited; added tags and fusions are not shown. Lines headed by an entry give the natural chain unless they say otherwise; changes in a name come on top.
UniProt P10620: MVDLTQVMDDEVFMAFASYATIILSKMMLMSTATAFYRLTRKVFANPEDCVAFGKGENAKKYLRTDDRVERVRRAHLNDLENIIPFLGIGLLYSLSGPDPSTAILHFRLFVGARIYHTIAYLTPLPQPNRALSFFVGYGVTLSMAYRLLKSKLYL
UniProt Q9BV20: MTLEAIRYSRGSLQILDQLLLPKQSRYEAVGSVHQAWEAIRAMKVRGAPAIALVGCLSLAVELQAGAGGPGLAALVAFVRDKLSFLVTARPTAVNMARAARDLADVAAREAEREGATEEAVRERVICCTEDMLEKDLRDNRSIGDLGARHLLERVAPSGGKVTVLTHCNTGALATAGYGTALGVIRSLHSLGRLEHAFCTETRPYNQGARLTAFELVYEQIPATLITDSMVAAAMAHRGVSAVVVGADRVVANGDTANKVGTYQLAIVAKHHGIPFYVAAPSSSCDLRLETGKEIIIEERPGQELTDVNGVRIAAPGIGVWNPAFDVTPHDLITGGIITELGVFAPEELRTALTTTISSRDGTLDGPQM
UniProt Q9BUB5: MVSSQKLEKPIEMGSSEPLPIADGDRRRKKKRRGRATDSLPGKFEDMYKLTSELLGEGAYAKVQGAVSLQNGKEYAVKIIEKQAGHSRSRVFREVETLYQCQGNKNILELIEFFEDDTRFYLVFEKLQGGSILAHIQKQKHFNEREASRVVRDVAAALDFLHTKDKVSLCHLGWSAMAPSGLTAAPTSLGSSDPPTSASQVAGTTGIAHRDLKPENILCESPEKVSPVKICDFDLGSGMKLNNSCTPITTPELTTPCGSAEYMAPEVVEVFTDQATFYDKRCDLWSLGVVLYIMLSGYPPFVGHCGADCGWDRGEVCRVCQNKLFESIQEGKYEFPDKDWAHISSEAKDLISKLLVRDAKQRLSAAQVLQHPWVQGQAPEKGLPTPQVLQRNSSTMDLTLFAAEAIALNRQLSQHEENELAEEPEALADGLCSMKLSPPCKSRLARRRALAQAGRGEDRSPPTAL
UniProt P34949: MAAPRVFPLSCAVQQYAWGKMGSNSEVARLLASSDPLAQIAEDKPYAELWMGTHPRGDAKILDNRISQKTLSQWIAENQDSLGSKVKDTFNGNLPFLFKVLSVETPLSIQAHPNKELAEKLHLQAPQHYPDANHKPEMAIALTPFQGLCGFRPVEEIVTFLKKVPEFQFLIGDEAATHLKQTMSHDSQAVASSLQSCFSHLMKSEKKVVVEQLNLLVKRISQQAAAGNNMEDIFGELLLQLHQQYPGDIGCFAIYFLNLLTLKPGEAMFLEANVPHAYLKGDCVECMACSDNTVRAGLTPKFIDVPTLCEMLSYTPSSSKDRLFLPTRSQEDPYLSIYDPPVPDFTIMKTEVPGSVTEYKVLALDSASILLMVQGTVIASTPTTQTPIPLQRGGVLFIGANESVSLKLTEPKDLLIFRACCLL
UniProt Q9NV56, whole entry, looked up: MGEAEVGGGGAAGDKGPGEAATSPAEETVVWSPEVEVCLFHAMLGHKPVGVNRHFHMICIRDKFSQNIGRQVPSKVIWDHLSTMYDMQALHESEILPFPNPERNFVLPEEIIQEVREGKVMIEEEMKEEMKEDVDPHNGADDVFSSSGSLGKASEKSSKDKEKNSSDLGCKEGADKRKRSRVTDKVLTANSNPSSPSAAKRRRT
UniProt Q9BU76: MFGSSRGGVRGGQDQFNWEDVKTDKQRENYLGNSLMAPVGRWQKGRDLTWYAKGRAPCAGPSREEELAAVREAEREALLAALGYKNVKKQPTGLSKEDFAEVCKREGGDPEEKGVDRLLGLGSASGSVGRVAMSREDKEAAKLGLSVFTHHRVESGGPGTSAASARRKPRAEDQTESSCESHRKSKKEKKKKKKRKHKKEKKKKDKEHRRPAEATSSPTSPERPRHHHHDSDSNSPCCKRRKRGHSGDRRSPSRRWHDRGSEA
UniProt P25325: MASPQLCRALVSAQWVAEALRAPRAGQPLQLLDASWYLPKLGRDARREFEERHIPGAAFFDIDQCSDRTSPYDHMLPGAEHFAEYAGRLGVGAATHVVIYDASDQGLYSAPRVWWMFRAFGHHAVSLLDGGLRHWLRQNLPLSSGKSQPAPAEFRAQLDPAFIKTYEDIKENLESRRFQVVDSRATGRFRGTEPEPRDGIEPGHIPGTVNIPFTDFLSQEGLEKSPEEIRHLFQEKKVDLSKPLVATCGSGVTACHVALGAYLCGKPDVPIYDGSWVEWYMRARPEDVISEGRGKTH
UniProt Q5TGZ0: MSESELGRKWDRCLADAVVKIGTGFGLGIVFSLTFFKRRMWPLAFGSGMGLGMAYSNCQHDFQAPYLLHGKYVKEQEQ
UniProt Q96PC5: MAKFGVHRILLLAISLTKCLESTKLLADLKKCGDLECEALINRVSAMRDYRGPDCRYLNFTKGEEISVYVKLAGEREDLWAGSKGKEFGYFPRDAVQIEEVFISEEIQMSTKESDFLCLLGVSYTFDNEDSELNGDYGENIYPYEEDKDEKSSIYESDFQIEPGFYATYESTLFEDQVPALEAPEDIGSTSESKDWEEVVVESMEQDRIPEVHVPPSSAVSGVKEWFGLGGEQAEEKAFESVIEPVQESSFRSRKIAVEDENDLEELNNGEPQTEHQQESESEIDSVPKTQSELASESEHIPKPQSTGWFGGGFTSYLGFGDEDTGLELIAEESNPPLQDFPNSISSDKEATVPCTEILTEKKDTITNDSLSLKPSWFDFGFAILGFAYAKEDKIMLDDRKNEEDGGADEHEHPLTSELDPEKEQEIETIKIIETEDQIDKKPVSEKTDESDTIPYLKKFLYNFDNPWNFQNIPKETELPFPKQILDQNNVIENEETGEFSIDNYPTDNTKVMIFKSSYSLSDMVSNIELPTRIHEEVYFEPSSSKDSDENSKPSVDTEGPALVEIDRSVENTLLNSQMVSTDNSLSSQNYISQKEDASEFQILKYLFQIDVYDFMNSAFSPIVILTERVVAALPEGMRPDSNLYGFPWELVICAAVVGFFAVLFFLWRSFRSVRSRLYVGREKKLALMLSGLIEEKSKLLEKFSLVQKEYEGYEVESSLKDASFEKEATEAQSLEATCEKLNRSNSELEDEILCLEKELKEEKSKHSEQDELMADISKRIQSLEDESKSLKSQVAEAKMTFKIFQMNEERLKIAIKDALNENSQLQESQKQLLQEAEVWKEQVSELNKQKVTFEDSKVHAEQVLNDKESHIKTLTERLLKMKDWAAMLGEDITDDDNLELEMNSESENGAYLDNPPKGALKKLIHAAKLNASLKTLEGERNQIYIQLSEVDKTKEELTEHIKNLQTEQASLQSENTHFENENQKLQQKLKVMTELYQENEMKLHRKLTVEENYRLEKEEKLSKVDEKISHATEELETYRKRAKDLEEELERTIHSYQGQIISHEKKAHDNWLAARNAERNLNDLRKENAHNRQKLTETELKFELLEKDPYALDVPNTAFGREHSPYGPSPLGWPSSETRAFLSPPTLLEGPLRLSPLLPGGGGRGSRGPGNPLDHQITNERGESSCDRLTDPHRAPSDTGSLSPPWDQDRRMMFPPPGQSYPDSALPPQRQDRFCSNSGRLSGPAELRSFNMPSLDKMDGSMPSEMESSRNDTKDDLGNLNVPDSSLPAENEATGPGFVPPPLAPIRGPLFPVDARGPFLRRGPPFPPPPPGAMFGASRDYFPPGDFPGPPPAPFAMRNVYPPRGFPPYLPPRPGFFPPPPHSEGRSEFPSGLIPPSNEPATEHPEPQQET
UniProt Q8N3F8: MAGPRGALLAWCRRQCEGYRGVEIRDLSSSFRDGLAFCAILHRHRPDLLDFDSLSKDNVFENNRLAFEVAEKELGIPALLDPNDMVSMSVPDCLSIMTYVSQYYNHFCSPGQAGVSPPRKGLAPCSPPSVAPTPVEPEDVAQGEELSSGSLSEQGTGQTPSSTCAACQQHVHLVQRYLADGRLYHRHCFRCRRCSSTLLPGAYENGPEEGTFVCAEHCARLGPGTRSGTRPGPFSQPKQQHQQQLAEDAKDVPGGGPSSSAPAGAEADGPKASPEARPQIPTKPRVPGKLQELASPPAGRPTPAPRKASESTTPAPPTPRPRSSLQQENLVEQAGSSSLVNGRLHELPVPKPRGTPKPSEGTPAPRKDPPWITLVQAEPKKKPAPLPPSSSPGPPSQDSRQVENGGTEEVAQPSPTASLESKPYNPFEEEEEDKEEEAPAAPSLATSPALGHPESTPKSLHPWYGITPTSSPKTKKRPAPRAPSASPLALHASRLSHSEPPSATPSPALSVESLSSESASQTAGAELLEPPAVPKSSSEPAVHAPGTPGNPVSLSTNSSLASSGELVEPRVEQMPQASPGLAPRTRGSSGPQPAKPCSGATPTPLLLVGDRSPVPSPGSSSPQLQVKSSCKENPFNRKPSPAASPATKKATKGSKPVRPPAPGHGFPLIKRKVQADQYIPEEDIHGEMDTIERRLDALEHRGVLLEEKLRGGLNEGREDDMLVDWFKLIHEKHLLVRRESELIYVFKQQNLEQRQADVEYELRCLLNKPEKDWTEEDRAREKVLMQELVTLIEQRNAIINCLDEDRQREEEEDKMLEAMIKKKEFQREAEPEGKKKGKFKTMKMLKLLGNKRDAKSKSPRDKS
UniProt Q9H8M7: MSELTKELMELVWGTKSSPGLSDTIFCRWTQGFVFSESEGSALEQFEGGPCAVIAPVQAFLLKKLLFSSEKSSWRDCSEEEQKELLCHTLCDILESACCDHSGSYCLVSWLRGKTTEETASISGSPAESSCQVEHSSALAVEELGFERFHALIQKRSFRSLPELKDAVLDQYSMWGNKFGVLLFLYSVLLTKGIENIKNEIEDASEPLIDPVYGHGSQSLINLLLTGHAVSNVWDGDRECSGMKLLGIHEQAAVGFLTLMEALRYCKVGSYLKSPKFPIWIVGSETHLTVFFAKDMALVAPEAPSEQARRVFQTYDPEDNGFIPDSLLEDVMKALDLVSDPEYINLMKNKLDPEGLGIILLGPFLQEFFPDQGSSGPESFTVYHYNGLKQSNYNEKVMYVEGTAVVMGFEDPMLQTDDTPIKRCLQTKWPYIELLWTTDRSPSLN
UniProt O95563: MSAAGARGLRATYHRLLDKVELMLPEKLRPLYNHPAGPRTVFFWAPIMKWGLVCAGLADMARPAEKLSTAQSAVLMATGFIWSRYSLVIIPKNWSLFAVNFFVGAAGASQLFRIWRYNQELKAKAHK
UniProt Q9UNW1: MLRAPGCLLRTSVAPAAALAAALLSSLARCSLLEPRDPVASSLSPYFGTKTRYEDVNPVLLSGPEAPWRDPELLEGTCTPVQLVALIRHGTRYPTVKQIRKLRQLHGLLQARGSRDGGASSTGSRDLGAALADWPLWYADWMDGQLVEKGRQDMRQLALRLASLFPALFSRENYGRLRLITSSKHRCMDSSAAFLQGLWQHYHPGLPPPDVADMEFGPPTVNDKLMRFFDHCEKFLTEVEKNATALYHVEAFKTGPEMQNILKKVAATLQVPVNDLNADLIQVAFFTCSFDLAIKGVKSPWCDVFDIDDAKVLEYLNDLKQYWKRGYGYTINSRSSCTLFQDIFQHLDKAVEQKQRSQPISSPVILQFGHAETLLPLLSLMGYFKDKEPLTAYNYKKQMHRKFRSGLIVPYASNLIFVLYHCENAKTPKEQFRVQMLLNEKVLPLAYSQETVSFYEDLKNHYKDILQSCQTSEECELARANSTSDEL
UniProt Q9HCE1: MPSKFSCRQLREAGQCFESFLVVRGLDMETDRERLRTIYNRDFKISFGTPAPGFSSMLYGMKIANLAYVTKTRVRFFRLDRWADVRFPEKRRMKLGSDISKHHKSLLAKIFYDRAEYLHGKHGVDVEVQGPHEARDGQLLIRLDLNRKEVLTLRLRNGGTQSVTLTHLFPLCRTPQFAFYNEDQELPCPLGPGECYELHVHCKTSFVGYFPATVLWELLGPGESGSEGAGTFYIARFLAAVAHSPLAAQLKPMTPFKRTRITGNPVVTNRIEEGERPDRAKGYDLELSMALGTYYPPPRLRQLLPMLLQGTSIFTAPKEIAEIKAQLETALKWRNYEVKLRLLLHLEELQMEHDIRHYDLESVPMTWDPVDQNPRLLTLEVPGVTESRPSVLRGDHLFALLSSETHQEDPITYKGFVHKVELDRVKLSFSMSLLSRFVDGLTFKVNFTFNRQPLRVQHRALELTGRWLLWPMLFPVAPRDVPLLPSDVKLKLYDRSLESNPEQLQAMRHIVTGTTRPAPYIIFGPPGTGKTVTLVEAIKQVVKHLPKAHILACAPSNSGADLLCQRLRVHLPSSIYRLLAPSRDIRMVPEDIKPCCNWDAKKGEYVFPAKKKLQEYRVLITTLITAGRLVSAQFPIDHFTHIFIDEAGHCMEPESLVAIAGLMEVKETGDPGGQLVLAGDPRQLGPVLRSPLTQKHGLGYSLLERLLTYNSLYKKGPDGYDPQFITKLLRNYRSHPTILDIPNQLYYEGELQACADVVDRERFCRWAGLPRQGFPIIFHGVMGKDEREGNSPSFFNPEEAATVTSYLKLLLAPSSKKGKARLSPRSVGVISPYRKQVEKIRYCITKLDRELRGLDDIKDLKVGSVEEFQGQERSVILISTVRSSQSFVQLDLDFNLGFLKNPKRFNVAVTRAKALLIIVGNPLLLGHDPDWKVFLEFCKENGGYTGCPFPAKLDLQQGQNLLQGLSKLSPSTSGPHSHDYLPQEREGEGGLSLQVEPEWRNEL

Some of the results follow.

Compound in the first assay: CN1CCN(CCOc2cc(OC3CCOCC3)c3c(Nc4c(Cl)ccc5c4OCO5)ncnc3c2)CC1 [saracatinib]
Put plainly: log2 fold change, soluble protein after heating vs DMSO (PISA); higher = thermal stabilisation; K562 lysate, 10 uM; active = over 0.2 and 3.5 SD of the protein, either way, in both replicates (recomputed). In outline: (§1)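 Soluble protein was defined as the supernatant remaining after 21,000xg for 90 min, following pooling of heated aliquots and adjustment to 0.5% NP-40 at 4°C. Before that, crude K562 extract at 1 mg/mL protein in PBS pH 7.4 with 1 mM MgCl2 was treated with 10 μM compound for 30 min and heated for 3 min across 48°C-58°C. Quantification used TMTpro 16plex LC-MS/MS with channel sums equalised, and values are log-two fold changes in thermal stability relative to solvent controls from duplicates.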
MGST1 (UniProt P10620): the log2 fold change is inactive: 0.068.

As to MRI1 (UniProt Q9BV20), the log2 fold change was inactive: -0.007.

Regarding MOB4 (UniProt Q9Y3A3), the log2 fold change was inactive: 0.054.

Take MKNK1 (UniProt Q9BUB5): the log2 fold change was inactive: 0.023.

With MIF4GD isoform 3 (UniProt A9UHW6), the log2 fold change was inactive: 0.02.

As to MRPL1 (UniProt Q9BYD6), the log2 fold change was inactive: -0.006.

Regarding MLX (UniProt Q9UH92), the log2 fold change was inactive: 0.092.

Turning to MPI (UniProt P34949), the log2 fold change is inactive: -0.028.

For MRGBP (UniProt Q9NV56), the log2 fold change is inactive: -0.017.

Regarding MMTAG2 (UniProt Q9BU76), the log2 fold change is inactive: -0.026.

Take MPZL1 (UniProt O95297): the log2 fold change was inactive: 0.045.

As for MRPL23 (UniProt Q16540), the log2 fold change is inactive: -0.065.

As to MPST isoform 2 (UniProt P25325), the log2 fold change is inactive: -0.014.

In the case of MRPL15 (UniProt Q9P015), the log2 fold change is inactive: -0.07.

On to MICOS10 (UniProt Q5TGZ0), for which the log2 fold change was inactive: 0.027.

As for MIA2 (UniProt Q96PC5), the log2 fold change is inactive: 0.036.

Consider MKI67 (UniProt P46013), for which the log2 fold change was inactive: 0.015.

As for MKRN1 (UniProt Q9UHC7), the log2 fold change is inactive: -0.089.

As for MRPL14 (UniProt Q6P1L8), the log2 fold change is inactive: -0.12.

With MICALL1 (UniProt Q8N3F8), the log2 fold change is inactive: 0.021.

As for MICALL2 (UniProt Q8IY33), the log2 fold change is inactive: -0.015.

On to MINDY3 (UniProt Q9H8M7), for which the log2 fold change is inactive: 0.031.

For the target MPP1 (UniProt Q00013), the log2 fold change is inactive: -0.001.

As to MON2 isoform 5 (UniProt Q7Z3U7), the log2 fold change was inactive: -0.006.

MORF4L1 isoform 2 (UniProt Q9UBU8): the log2 fold change was inactive: 0.038.

In the case of MPC2 (UniProt O95563), the log2 fold change is inactive: -0.005.

In the case of MIOS (UniProt Q9NXC5), the log2 fold change was inactive: 0.001.

For the target MKRN2 (UniProt Q9H000), the log2 fold change is inactive: 0.034.

In the case of MMUT (UniProt P22033), the log2 fold change is inactive: 0.02.

Regarding MORC2 (UniProt Q9Y6X9), the log2 fold change was inactive: 0.042.

With MMAB (UniProt Q96EY8), the log2 fold change was inactive: 0.013.

As for MRPL19 (UniProt P49406), the log2 fold change is inactive: 0.016.

In the case of MRM3 (UniProt Q9HC36), the log2 fold change was inactive: -0.031.

Take MORF4L2 (UniProt Q15014): the log2 fold change is inactive: 0.004.

In the case of MLXIP (UniProt Q9HAP2), the log2 fold change was inactive: 0.

MGST3 (UniProt O14880): the log2 fold change was inactive: -0.017.

In the case of MINPP1 (UniProt Q9UNW1), the log2 fold change was inactive: -0.016.

With MOV10 (UniProt Q9HCE1), the log2 fold change is inactive: 0.007.

Compound in a further assay: CN1CCN(c2nc(C3=C(c4c[nH]c5ccccc45)C(=O)NC3=O)c3ccccc3n2)CC1 [sotrastaurin]
The assay is described as above. In outline: as §1
Take MGST1 (UniProt P10620): the log2 fold change is inactive: -0.013.

Consider MRI1 (UniProt Q9BV20), for which the log2 fold change was inactive: -0.03.

Consider MOB4 (UniProt Q9Y3A3), for which the log2 fold change was inactive: -0.022.

With MKNK1 (UniProt Q9BUB5), the log2 fold change was inactive: -0.044.

With MIF4GD isoform 3 (UniProt A9UHW6), the log2 fold change was inactive: 0.017.

For the target MRPL1 (UniProt Q9BYD6), the log2 fold change was inactive: 0.086.

Consider MLX (UniProt Q9UH92), for which the log2 fold change was inactive: -0.11.

In the case of MPI (UniProt P34949), the log2 fold change is inactive: 0.025.

In the case of MRGBP (UniProt Q9NV56), the log2 fold change was inactive: 0.003.

For MMTAG2 (UniProt Q9BU76), the log2 fold change was inactive: -0.041.

Consider MPZL1 (UniProt O95297), for which the log2 fold change was inactive: -0.022.

Take MRPL23 (UniProt Q16540): the log2 fold change is inactive: -0.032.

For the target MPST isoform 2 (UniProt P25325), the log2 fold change was inactive: -0.001.

On to MRPL15 (UniProt Q9P015), for which the log2 fold change is inactive: 0.023.

In the case of MICOS10 (UniProt Q5TGZ0), the log2 fold change is inactive: -0.029.

On to MIA2 (UniProt Q96PC5), for which the log2 fold change was inactive: 0.019.

As to MKI67 (UniProt P46013), the log2 fold change was inactive: 0.012.

As for MKRN1 (UniProt Q9UHC7), the log2 fold change is inactive: 0.034.

In the case of MRPL14 (UniProt Q6P1L8), the log2 fold change was inactive: -0.014.

Consider MICALL1 (UniProt Q8N3F8), for which the log2 fold change is inactive: 0.003.

As for MICALL2 (UniProt Q8IY33), the log2 fold change is inactive: 0.014.

Consider MINDY3 (UniProt Q9H8M7), for which the log2 fold change was inactive: 0.064.

MPP1 (UniProt Q00013): the log2 fold change was inactive: -0.007.

With MON2 isoform 5 (UniProt Q7Z3U7), the log2 fold change was inactive: -0.003.

With MORF4L1 isoform 2 (UniProt Q9UBU8), the log2 fold change was inactive: 0.019.

As for MPC2 (UniProt O95563), the log2 fold change was inactive: 0.003.

Regarding MIOS (UniProt Q9NXC5), the log2 fold change was inactive: -0.002.

Consider MKRN2 (UniProt Q9H000), for which the log2 fold change was inactive: -0.042.

Consider MMUT (UniProt P22033), for which the log2 fold change is inactive: -0.018.

In the case of MORC2 (UniProt Q9Y6X9), the log2 fold change was inactive: 0.037.

Turning to MMAB (UniProt Q96EY8), the log2 fold change is inactive: 0.008.

For MRPL19 (UniProt P49406), the log2 fold change was inactive: -0.016.

For MRM3 (UniProt Q9HC36), the log2 fold change was inactive: -0.05.

Take MORF4L2 (UniProt Q15014): the log2 fold change was inactive: -0.007.

With MLXIP (UniProt Q9HAP2), the log2 fold change was inactive: 0.008.

For MGST3 (UniProt O14880), the log2 fold change is inactive: -0.015.

Consider MINPP1 (UniProt Q9UNW1), for which the log2 fold change is inactive: 0.039.

Take MOV10 (UniProt Q9HCE1): the log2 fold change is inactive: 0.023.
